Test [1] concerns the target SUN domain of human SUN1 (amino-acids 616-812) (human). As to the kind of experiment: crystal structure.
Test [2] shares this target. In words: SEC-SAXS. (Size exclusion chromatography separates by hydrodynamic size, large species first.)

Results are given in words; binding and its absence hold for the method and conditions named. Binding can be weak; no strength is given. For some assays here: Binding seen in cells or lysates may run through a third protein.

TGQLFQKSVDAAPTQQEDSWTSLEHILWPFTRLRHNGPPPV (peptide, UniProt Q12912 515-555) [KASH domain of human JAW1/LRMP (amino-acids 515-555)]: the binding result in test [1] is reported as “binds”.

As to EDSWTSLEHILWPFTRLRHNGPPPV (peptide, UniProt Q12912 531-555) [KASH6 core (human JAW1/LRMP amino-acids 531-555)], the binding entry in test [2] is recorded as “binds”.

(Values after doi:10.1101/2023.06.05.543797.)
